The supplement of paper PMC12823440, “Inhibitors supercharge kinase turnover through native proteolytic circuits” (Nature, 2025)
Some of the results follow. The calls rarely recur for the same compound in another form.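 In K562 cells expressing nanoluciferase-fused kinases, luminescence was recorded at 4 h intervals between 2 and 18 h, normalized as percent of control with DMSO at 100% and a positive control at 0%. A significant (2 sigma) signal drop marks a time point as decreased. The authors' rule for a hit is not shown and takes in more than the number of time points.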

Chains of the proteins cited; added tags and fusions are not shown. Lines headed by an entry give the natural chain unless they say otherwise; changes in a name come on top.
UniProt P50750, whole entry: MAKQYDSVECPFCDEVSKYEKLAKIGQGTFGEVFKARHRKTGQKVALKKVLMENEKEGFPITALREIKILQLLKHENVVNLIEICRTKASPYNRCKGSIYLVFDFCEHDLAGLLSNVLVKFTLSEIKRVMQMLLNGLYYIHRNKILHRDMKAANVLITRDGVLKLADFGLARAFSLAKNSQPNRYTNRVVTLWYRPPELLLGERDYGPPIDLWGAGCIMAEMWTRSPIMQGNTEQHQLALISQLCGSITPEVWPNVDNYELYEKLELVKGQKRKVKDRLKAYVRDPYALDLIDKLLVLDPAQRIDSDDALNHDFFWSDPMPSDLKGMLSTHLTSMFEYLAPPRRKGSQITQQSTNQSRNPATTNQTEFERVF
UniProt P07333, whole entry: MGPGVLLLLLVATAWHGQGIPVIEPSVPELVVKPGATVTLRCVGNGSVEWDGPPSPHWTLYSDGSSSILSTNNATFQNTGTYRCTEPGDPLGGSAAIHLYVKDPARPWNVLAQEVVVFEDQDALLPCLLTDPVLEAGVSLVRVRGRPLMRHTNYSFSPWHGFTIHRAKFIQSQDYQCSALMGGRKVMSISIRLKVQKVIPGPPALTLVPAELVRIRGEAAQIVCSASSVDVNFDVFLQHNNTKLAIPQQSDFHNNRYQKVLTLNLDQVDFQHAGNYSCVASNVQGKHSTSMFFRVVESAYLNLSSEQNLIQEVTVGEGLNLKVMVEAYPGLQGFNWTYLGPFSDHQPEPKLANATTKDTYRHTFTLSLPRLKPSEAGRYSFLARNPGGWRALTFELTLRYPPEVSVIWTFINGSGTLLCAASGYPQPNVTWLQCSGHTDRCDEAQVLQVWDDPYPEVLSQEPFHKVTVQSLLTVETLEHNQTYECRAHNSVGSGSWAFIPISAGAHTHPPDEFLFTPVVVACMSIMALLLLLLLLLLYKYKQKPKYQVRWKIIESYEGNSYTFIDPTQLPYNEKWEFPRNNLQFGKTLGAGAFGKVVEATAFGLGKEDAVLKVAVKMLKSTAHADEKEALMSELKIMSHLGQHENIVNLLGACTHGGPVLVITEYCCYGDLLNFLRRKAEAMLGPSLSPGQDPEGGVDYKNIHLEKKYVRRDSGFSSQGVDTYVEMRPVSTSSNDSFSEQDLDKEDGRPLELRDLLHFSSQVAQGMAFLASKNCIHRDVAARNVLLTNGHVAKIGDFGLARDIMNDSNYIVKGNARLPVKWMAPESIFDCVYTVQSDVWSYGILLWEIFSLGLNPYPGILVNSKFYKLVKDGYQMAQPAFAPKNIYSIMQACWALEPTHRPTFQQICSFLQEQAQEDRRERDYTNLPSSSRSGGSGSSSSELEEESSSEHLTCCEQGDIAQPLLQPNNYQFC
UniProt P41240: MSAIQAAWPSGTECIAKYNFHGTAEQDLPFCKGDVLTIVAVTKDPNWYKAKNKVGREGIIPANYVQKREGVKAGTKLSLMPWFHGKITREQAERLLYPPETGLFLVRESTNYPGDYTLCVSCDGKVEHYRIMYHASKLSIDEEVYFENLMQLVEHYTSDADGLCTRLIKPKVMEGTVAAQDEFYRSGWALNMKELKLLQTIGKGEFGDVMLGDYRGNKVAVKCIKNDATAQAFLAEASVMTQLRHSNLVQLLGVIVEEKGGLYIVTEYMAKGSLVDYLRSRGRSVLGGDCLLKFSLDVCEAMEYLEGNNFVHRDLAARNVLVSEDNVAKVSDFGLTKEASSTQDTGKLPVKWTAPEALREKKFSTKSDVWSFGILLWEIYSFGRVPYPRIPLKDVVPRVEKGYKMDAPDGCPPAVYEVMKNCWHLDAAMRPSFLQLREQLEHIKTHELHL
UniProt P48729: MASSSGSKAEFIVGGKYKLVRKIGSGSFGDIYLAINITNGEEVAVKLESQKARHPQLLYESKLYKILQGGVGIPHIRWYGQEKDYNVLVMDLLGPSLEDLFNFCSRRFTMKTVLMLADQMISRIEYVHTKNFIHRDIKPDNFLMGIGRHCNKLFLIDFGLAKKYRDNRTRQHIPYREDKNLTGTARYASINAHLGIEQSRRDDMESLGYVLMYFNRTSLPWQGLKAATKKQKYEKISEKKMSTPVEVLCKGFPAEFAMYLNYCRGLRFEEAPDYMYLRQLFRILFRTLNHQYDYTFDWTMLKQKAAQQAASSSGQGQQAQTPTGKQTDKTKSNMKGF
UniProt P48730: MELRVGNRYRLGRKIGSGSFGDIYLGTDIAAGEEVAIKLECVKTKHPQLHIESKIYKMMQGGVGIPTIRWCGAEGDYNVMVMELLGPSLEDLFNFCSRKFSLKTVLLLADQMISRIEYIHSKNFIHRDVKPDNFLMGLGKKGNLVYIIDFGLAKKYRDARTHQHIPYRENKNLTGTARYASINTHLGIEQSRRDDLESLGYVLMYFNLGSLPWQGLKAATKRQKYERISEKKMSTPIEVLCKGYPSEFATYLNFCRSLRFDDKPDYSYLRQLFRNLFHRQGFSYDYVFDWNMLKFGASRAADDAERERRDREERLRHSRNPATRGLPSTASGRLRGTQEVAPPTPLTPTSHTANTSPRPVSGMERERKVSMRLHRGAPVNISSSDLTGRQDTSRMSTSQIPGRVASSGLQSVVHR
UniProt Q9Y463, whole entry, looked up: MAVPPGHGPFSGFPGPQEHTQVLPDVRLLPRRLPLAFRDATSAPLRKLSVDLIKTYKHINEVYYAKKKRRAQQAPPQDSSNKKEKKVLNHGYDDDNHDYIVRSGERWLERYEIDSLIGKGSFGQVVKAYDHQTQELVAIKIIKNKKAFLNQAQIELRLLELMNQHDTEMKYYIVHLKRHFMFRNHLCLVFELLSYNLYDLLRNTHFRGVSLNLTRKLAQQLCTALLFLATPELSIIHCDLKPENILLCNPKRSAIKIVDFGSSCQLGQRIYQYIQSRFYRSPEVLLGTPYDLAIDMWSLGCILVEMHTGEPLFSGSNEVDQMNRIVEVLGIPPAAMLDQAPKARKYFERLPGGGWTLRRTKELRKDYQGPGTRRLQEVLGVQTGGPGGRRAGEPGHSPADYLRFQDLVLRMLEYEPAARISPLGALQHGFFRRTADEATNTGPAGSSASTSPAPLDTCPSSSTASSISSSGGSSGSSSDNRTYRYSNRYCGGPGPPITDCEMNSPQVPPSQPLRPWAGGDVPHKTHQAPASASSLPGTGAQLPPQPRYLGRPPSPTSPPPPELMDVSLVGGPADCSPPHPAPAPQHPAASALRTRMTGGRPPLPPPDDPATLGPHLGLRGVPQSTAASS
UniProt Q92630: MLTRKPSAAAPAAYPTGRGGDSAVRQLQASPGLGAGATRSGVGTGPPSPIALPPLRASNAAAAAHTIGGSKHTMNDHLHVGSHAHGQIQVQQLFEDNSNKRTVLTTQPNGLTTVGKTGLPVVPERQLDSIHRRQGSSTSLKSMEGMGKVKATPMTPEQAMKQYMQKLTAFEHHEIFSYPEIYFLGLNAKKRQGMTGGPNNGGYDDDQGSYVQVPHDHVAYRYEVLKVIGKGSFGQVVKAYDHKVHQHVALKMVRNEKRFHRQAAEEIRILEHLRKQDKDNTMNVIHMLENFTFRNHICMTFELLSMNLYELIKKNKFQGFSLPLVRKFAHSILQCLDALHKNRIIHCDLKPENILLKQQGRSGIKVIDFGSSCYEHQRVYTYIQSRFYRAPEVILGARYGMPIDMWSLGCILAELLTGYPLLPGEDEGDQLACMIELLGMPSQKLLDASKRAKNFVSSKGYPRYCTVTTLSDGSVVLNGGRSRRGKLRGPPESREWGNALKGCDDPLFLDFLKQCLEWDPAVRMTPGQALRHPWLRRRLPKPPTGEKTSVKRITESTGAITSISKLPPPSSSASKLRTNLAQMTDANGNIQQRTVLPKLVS
UniProt P21860, whole entry: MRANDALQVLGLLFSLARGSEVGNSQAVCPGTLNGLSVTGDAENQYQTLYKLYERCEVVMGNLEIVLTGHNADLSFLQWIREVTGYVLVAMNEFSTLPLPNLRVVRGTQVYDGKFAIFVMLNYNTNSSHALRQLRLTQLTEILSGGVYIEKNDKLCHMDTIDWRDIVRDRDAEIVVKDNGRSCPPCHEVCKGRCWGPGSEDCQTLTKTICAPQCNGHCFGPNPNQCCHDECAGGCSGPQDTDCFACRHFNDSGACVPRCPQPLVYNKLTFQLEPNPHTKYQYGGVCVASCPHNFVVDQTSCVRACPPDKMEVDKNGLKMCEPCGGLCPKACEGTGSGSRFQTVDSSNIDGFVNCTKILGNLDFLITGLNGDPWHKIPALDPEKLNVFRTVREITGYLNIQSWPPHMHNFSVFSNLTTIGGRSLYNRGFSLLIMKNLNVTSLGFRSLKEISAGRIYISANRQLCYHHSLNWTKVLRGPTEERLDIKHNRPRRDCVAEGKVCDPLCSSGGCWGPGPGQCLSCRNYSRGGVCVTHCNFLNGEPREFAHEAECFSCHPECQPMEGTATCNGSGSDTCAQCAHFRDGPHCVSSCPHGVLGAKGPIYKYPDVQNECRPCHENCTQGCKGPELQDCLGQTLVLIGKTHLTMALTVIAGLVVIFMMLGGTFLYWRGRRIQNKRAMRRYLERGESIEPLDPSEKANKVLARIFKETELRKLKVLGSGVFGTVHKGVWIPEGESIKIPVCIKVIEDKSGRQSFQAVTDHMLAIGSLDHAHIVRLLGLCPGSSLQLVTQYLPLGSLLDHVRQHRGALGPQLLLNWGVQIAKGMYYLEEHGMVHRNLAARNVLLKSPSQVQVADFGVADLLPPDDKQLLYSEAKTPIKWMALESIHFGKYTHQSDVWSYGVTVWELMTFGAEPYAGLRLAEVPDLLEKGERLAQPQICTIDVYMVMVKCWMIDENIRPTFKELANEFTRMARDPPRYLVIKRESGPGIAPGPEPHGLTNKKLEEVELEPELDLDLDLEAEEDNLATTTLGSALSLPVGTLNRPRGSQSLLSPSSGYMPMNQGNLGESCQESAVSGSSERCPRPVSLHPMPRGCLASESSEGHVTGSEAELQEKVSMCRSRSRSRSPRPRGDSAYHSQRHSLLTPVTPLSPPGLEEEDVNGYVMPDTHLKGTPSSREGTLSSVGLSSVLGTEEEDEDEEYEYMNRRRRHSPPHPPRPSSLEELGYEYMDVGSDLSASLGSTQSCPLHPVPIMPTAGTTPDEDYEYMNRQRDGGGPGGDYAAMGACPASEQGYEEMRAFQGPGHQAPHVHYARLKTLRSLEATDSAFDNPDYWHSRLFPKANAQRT
UniProt Q15303, whole entry R711C: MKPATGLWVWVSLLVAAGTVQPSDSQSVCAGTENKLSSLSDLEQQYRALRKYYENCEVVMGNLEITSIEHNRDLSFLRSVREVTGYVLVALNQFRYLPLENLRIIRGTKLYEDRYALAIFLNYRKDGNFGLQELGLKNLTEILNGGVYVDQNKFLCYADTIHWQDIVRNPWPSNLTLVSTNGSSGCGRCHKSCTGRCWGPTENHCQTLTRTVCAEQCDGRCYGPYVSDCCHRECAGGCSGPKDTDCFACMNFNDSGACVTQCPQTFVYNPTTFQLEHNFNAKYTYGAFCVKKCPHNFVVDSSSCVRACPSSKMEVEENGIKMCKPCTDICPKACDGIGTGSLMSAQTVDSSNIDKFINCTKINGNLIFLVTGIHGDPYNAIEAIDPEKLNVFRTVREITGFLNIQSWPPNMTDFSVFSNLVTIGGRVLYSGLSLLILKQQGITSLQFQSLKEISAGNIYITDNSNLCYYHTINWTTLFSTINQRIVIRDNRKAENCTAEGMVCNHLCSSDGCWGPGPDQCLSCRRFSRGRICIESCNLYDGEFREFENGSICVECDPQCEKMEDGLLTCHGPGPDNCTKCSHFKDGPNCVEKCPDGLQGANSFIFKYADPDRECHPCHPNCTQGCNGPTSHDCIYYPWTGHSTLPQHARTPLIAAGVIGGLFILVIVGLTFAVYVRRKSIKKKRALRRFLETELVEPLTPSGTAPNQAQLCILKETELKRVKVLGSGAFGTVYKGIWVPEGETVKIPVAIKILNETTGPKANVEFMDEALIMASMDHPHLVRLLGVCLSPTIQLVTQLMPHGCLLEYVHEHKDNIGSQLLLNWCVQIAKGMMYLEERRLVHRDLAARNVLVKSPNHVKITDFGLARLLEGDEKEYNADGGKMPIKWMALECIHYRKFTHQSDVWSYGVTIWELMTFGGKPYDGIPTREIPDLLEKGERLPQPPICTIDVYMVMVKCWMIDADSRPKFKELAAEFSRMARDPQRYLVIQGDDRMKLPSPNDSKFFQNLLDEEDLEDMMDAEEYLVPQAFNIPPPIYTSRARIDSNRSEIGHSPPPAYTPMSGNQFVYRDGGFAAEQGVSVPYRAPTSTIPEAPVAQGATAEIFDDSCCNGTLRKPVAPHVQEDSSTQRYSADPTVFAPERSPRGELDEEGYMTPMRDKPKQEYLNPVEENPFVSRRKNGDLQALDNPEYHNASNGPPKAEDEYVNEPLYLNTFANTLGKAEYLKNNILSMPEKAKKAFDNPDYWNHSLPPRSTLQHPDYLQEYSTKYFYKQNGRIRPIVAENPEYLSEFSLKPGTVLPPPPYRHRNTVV

Assays:
Assay in all cases: kinase-Nluc reporter destabilization hit call (1 = scored as downregulated) (binary); higher = compound decreases kinase abundance
Details in all cases: K562; 2-18 h
CDK7 = CDK7 (UniProt P50613)
CDK9 = CDK9 (UniProt P50750)
CHEK2 = CHEK2 (UniProt O96017)
CSF1R = CSF1R (UniProt P07333)
CSK = CSK (UniProt P41240)
CSNK1A1 = CSNK1A1 (UniProt P48729)
CSNK1D = CSNK1D (UniProt P48730)
DDR1 = DDR1 (UniProt Q08345)
DYRK1B = DYRK1B (UniProt Q9Y463)
DYRK2 = DYRK2 (UniProt Q92630)
EGFR = EGFR (UniProt P00533)
EGFR_G719S = EGFR_G719S (UniProt P00533)
EGFR_G719S_T790M = EGFR_G719S_T790M (UniProt P00533)
EGFR_L718V = EGFR_L718V (UniProt P00533)
EGFR_L858R = EGFR_L858R (UniProt P00533)
EGFR_L861Q = EGFR_L861Q (UniProt P00533)
EGFR_T790M = EGFR_T790M (UniProt P00533)
EPHA2 = EPHA2 (UniProt P29317)
ERBB3 = ERBB3 (UniProt P21860)
[1] = target: ERBB4_R711C (clone: ERBB4_mut) (UniProt Q15303)

Structure (SMILES) | kinase-Nluc reporter destabilization hit call (CDK7) | kinase-Nluc reporter destabilization hit call (CDK9) | kinase-Nluc reporter destabilization hit call (CHEK2) | kinase-Nluc reporter destabilization hit call (CSF1R) | kinase-Nluc reporter destabilization hit call (CSK) | kinase-Nluc reporter destabilization hit call (CSNK1A1) | kinase-Nluc reporter destabilization hit call (CSNK1D) | kinase-Nluc reporter destabilization hit call (DDR1) | kinase-Nluc reporter destabilization hit call (DYRK1B) | kinase-Nluc reporter destabilization hit call (DYRK2) | kinase-Nluc reporter destabilization hit call (EGFR) | kinase-Nluc reporter destabilization hit call (EGFR_G719S) | kinase-Nluc reporter destabilization hit call (EGFR_G719S_T790M) | kinase-Nluc reporter destabilization hit call (EGFR_L718V) | kinase-Nluc reporter destabilization hit call (EGFR_L858R) | kinase-Nluc reporter destabilization hit call (EGFR_L861Q) | kinase-Nluc reporter destabilization hit call (EGFR_T790M) | kinase-Nluc reporter destabilization hit call (EPHA2) | kinase-Nluc reporter destabilization hit call (ERBB3) | kinase-Nluc reporter destabilization hit call [1]
O=C(/C=C/c1ccc(O)c(O)c1)c1ccc(O)cc1O [Butein] (10 µM) | inactive: 0 | inactive: 0 | inactive: 0 | inactive: 0 | inactive: 0 | inactive: 0 | inactive: 0 | inactive: 0 | inactive: 0 | active: 1 | inactive: 0 | inactive: 0 | inactive: 0 | inactive: 0 | inactive: 0 | inactive: 0 | inactive: 0 | inactive: 0 | inactive: 0 | inactive: 0
Cc1cc(CS(=O)(=O)c2ccccc2)cc(OCc2ccc(CN3CCC[C@@H]3CO)cc2)c1 [PF-543 (Citrate)] (10 µM) | inactive: 0 | inactive: 0 | inactive: 0 | inactive: 0 | inactive: 0 | inactive: 0 | inactive: 0 | inactive: 0 | inactive: 0 | inactive: 0 | inactive: 0 | inactive: 0 | inactive: 0 | inactive: 0 | inactive: 0 | inactive: 0 | inactive: 0 | inactive: 0 | inactive: 0 | inactive: 0
COCc1c(-c2ccc(NC(=O)Nc3cc(C(F)(F)F)ccc3F)c(F)c2)c2c(N)ncnn2c1CN1CCOCC1 (2.5 µM) | inactive: 0 | inactive: 0 | inactive: 0 | inactive: 0 | inactive: 0 | inactive: 0 | inactive: 0 | inactive: 0 | inactive: 0 | inactive: 0 | inactive: 0 | inactive: 0 | inactive: 0 | inactive: 0 | inactive: 0 | inactive: 0 | inactive: 0 | inactive: 0 | inactive: 0 | inactive: 0
C[C@H](NC(=O)/C(C#N)=C/c1cccc(Br)n1)c1ccccc1 (2.5 µM) | inactive: 0 | inactive: 0 | inactive: 0 | inactive: 0 | inactive: 0 | inactive: 0 | inactive: 0 | inactive: 0 | inactive: 0 | inactive: 0 | inactive: 0 | inactive: 0 | inactive: 0 | inactive: 0 | inactive: 0 | inactive: 0 | – | inactive: 0 | inactive: 0 | inactive: 0
COc1cc(OC)cc(N(CCNC(C)C)c2ccc3ncc(-c4cnn(C)c4)nc3c2)c1 [Erdafitinib] (2.5 µM) | inactive: 0 | inactive: 0 | inactive: 0 | inactive: 0 | inactive: 0 | inactive: 0 | inactive: 0 | inactive: 0 | inactive: 0 | inactive: 0 | inactive: 0 | inactive: 0 | inactive: 0 | inactive: 0 | inactive: 0 | inactive: 0 | inactive: 0 | inactive: 0 | inactive: 0 | inactive: 0
Cc1[nH]c(/C=C2\C(=O)Nc3ccc(S(=O)(=O)Cc4c(Cl)cccc4Cl)cc32)c(C)c1C(=O)N1CCC[C@@H]1CN1CCCC1 (2.5 µM) | inactive: 0 | inactive: 0 | inactive: 0 | inactive: 0 | inactive: 0 | inactive: 0 | inactive: 0 | inactive: 0 | inactive: 0 | inactive: 0 | inactive: 0 | inactive: 0 | inactive: 0 | inactive: 0 | inactive: 0 | inactive: 0 | inactive: 0 | inactive: 0 | inactive: 0 | inactive: 0
CC(C)(C#N)c1ccc(N2C(=O)OCc3cnc4ccc(-c5cnc6ccccc6c5)cc4c32)cc1 (2.5 µM) | inactive: 0 | inactive: 0 | inactive: 0 | inactive: 0 | inactive: 0 | inactive: 0 | inactive: 0 | inactive: 0 | inactive: 0 | inactive: 0 | inactive: 0 | inactive: 0 | inactive: 0 | inactive: 0 | inactive: 0 | inactive: 0 | inactive: 0 | inactive: 0 | inactive: 0 | inactive: 0
C=CC(=O)N1CCN(CCCn2c(=O)c(-c3c(Cl)c(OC)cc(OC)c3Cl)cc3cnc(NC)nc32)CC1 (10 µM) | inactive: 0 | inactive: 0 | inactive: 0 | inactive: 0 | inactive: 0 | inactive: 0 | inactive: 0 | inactive: 0 | inactive: 0 | inactive: 0 | inactive: 0 | inactive: 0 | inactive: 0 | inactive: 0 | inactive: 0 | inactive: 0 | inactive: 0 | inactive: 0 | inactive: 0 | inactive: 0
NC(=O)c1ccc(-c2nc(-c3ccccn3)c(-c3ccc4c(c3)OCO4)[nH]2)cc1 (10 µM) | inactive: 0 | inactive: 0 | inactive: 0 | inactive: 0 | inactive: 0 | inactive: 0 | inactive: 0 | inactive: 0 | inactive: 0 | inactive: 0 | inactive: 0 | inactive: 0 | inactive: 0 | inactive: 0 | inactive: 0 | inactive: 0 | inactive: 0 | inactive: 0 | inactive: 0 | inactive: 0
Nc1nc(N)c(N=O)c(OCC2CCCCC2)n1 (10 µM) | inactive: 0 | inactive: 0 | inactive: 0 | inactive: 0 | inactive: 0 | inactive: 0 | inactive: 0 | inactive: 0 | inactive: 0 | inactive: 0 | inactive: 0 | inactive: 0 | inactive: 0 | inactive: 0 | inactive: 0 | inactive: 0 | inactive: 0 | inactive: 0 | inactive: 0 | inactive: 0
COc1cc2ncnc(Nc3cccc(O)c3)c2cc1OC (10 µM) | inactive: 0 | inactive: 0 | inactive: 0 | inactive: 0 | inactive: 0 | inactive: 0 | inactive: 0 | inactive: 0 | inactive: 0 | inactive: 0 | inactive: 0 | inactive: 0 | inactive: 0 | inactive: 0 | inactive: 0 | inactive: 0 | inactive: 0 | inactive: 0 | inactive: 0 | inactive: 0
COCCOc1cc2nccc(Nc3n[nH]c(C)c3C)c2cc1S(=O)(=O)C(C)(C)C [RIP2 kinase inhibitor 2] (2.5 µM) | inactive: 0 | inactive: 0 | inactive: 0 | inactive: 0 | inactive: 0 | inactive: 0 | inactive: 0 | inactive: 0 | inactive: 0 | inactive: 0 | inactive: 0 | inactive: 0 | inactive: 0 | inactive: 0 | inactive: 0 | inactive: 0 | inactive: 0 | inactive: 0 | inactive: 0 | inactive: 0
CC[C@H](CO)Nc1nc(NCc2ccccc2)c2ncn(C(C)C)c2n1 [Seliciclib] (10 µM) | inactive: 0 | inactive: 0 | inactive: 0 | inactive: 0 | inactive: 0 | inactive: 0 | inactive: 0 | inactive: 0 | inactive: 0 | inactive: 0 | inactive: 0 | inactive: 0 | inactive: 0 | inactive: 0 | inactive: 0 | inactive: 0 | inactive: 0 | inactive: 0 | inactive: 0 | inactive: 0
CC(C)Oc1cc(Nc2nc(N[C@@H](C)c3ccc(F)cn3)ncc2Cl)n[nH]1 (10 µM) | inactive: 0 | inactive: 0 | inactive: 0 | inactive: 0 | inactive: 0 | inactive: 0 | inactive: 0 | inactive: 0 | inactive: 0 | inactive: 0 | inactive: 0 | inactive: 0 | inactive: 0 | inactive: 0 | inactive: 0 | inactive: 0 | inactive: 0 | inactive: 0 | inactive: 0 | inactive: 0
COc1c(Cl)cc2c([nH]c3cnccc32)c1NC(=O)c1cccnc1C (10 µM) | inactive: 0 | inactive: 0 | inactive: 0 | inactive: 0 | inactive: 0 | inactive: 0 | inactive: 0 | inactive: 0 | inactive: 0 | inactive: 0 | inactive: 0 | inactive: 0 | inactive: 0 | inactive: 0 | inactive: 0 | inactive: 0 | inactive: 0 | inactive: 0 | inactive: 0 | inactive: 0
COc1cc2c(Nc3ccc(NC(=O)c4ccccc4)cc3)ncnc2cc1OCCCN1CCOCC1 (10 µM) | inactive: 0 | inactive: 0 | inactive: 0 | inactive: 0 | inactive: 0 | inactive: 0 | inactive: 0 | inactive: 0 | inactive: 0 | inactive: 0 | inactive: 0 | inactive: 0 | inactive: 0 | inactive: 0 | inactive: 0 | inactive: 0 | inactive: 0 | inactive: 0 | inactive: 0 | inactive: 0
CC(C)(C)c1nc2c3cc[nH]c(=O)c3c3cc(F)ccc3c2[nH]1 [Pyridone 6] (10 µM) | inactive: 0 | inactive: 0 | inactive: 0 | inactive: 0 | inactive: 0 | inactive: 0 | inactive: 0 | inactive: 0 | inactive: 0 | inactive: 0 | inactive: 0 | inactive: 0 | inactive: 0 | inactive: 0 | inactive: 0 | inactive: 0 | inactive: 0 | inactive: 0 | inactive: 0 | inactive: 0

A draw from above in order of length of the SMILES, low to high:
Structure (SMILES) | kinase-Nluc reporter destabilization hit call (CDK7) | kinase-Nluc reporter destabilization hit call (CDK9) | kinase-Nluc reporter destabilization hit call (CHEK2) | kinase-Nluc reporter destabilization hit call (CSF1R) | kinase-Nluc reporter destabilization hit call (CSK) | kinase-Nluc reporter destabilization hit call (CSNK1A1) | kinase-Nluc reporter destabilization hit call (CSNK1D) | kinase-Nluc reporter destabilization hit call (DDR1) | kinase-Nluc reporter destabilization hit call (DYRK1B) | kinase-Nluc reporter destabilization hit call (DYRK2) | kinase-Nluc reporter destabilization hit call (EGFR) | kinase-Nluc reporter destabilization hit call (EGFR_G719S) | kinase-Nluc reporter destabilization hit call (EGFR_G719S_T790M) | kinase-Nluc reporter destabilization hit call (EGFR_L718V) | kinase-Nluc reporter destabilization hit call (EGFR_L858R) | kinase-Nluc reporter destabilization hit call (EGFR_L861Q) | kinase-Nluc reporter destabilization hit call (EGFR_T790M) | kinase-Nluc reporter destabilization hit call (EPHA2) | kinase-Nluc reporter destabilization hit call (ERBB3) | kinase-Nluc reporter destabilization hit call [1]
C[C@H](NC(=O)/C(C#N)=C/c1cccc(Br)n1)c1ccccc1 (2.5 µM) | inactive: 0 | inactive: 0 | inactive: 0 | inactive: 0 | inactive: 0 | inactive: 0 | inactive: 0 | inactive: 0 | inactive: 0 | inactive: 0 | inactive: 0 | inactive: 0 | inactive: 0 | inactive: 0 | inactive: 0 | inactive: 0 | – | inactive: 0 | inactive: 0 | inactive: 0
COc1cc2c(Nc3ccc(NC(=O)c4ccccc4)cc3)ncnc2cc1OCCCN1CCOCC1 (10 µM) | inactive: 0 | inactive: 0 | inactive: 0 | inactive: 0 | inactive: 0 | inactive: 0 | inactive: 0 | inactive: 0 | inactive: 0 | inactive: 0 | inactive: 0 | inactive: 0 | inactive: 0 | inactive: 0 | inactive: 0 | inactive: 0 | inactive: 0 | inactive: 0 | inactive: 0 | inactive: 0
CC(C)(C#N)c1ccc(N2C(=O)OCc3cnc4ccc(-c5cnc6ccccc6c5)cc4c32)cc1 (2.5 µM) | inactive: 0 | inactive: 0 | inactive: 0 | inactive: 0 | inactive: 0 | inactive: 0 | inactive: 0 | inactive: 0 | inactive: 0 | inactive: 0 | inactive: 0 | inactive: 0 | inactive: 0 | inactive: 0 | inactive: 0 | inactive: 0 | inactive: 0 | inactive: 0 | inactive: 0 | inactive: 0
Cc1[nH]c(/C=C2\C(=O)Nc3ccc(S(=O)(=O)Cc4c(Cl)cccc4Cl)cc32)c(C)c1C(=O)N1CCC[C@@H]1CN1CCCC1 (2.5 µM) | inactive: 0 | inactive: 0 | inactive: 0 | inactive: 0 | inactive: 0 | inactive: 0 | inactive: 0 | inactive: 0 | inactive: 0 | inactive: 0 | inactive: 0 | inactive: 0 | inactive: 0 | inactive: 0 | inactive: 0 | inactive: 0 | inactive: 0 | inactive: 0 | inactive: 0 | inactive: 0
